Laboratory results as given in article PMC5622162.
No constants are given. Whether binding was seen depends on the method and setting. In cells and extracts the contact can be indirect. Some binding calls cover weakened binding; strength is not graded here. Each block holds one binder with its values, some of them ahead of it.

How the values were obtained:
[1] = molecular target: T1, calsenilin (CSEN), endogenous in mouse hippocampus or brain (mouse (endogenous in hippocampus)) (UniProt Q9QXT8); test: co-IP; in vivo: hippocampal lysates (RIPA buffer with protease and phosphatase inhibitors) of wild-type, PLPP/CIN^Tg and PLPP/CIN^-/- mice; saline or 2 h after kainic acid; PLPP/CIN^-/- mice also with vehicle, IC261 or CKI-7; primary antibody and protein G sepharose at 4°C overnight, western blot
T1 sequence: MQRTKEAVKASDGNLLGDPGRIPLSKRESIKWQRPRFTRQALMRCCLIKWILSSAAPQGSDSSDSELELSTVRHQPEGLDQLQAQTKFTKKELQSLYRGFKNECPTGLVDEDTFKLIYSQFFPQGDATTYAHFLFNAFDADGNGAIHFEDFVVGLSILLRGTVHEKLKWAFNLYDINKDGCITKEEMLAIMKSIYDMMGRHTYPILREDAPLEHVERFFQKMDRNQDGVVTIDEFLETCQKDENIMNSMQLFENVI

[2] = molecular target: T1, calsenilin (CSEN), endogenous in mouse hippocampus or brain (mouse (endogenous in hippocampus)); test: co-IP; in vitro: recombinant PLPP/CIN (10 ng/ul) added to crude extracts of PLPP/CIN^-/- mouse brain at 30°C for 1 h; co-precipitation with endogenous CSEN and western blot; only the binder purified
[3] = molecular target: T2, Kv4.2 (an A-type K+ channel), endogenous in mouse hippocampus or brain (mouse (endogenous in hippocampus)) (UniProt Q9Z0V2); test: co-IP; in vivo: hippocampal lysates (RIPA buffer with protease and phosphatase inhibitors) of wild-type, PLPP/CIN^Tg and PLPP/CIN^-/- mice; saline or 2 h after kainic acid; PLPP/CIN^-/- mice also with vehicle, IC261 or CKI-7; primary antibody and protein G sepharose at 4°C overnight, western blot
T2 sequence: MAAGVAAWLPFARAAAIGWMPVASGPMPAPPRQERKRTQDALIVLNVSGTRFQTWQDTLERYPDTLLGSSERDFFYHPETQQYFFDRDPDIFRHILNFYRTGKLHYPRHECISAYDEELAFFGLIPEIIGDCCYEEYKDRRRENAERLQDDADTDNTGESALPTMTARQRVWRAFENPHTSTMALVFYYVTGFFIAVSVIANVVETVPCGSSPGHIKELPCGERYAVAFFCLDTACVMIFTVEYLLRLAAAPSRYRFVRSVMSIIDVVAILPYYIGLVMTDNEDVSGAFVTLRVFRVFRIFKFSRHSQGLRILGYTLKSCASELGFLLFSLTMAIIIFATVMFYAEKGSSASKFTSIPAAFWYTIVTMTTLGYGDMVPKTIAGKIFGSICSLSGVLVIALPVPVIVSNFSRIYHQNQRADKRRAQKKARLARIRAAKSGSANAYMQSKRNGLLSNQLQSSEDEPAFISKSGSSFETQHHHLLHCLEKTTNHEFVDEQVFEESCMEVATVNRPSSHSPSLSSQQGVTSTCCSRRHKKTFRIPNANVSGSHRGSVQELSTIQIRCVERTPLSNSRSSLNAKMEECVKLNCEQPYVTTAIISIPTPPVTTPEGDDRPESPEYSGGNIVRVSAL

[4] = molecular target: T2, Kv4.2 (an A-type K+ channel), endogenous in mouse hippocampus or brain (mouse (endogenous in hippocampus)); test: co-IP; in vitro: crude extracts of PLPP/CIN^-/- mouse brain incubated with recombinant PLPP/CIN (10 ng/ul) or Tris buffer (vehicle) at 30°C for 1 h, without added CK1 or CSEN; co-precipitation and western blot
[5] = molecular target: T3, GluN1 (an NMDAR subunit), endogenous in mouse hippocampus or brain (mouse (endogenous in hippocampus)), P35438; test: co-IP; in vivo: hippocampal lysates (RIPA buffer with protease and phosphatase inhibitors) of wild-type, PLPP/CIN^Tg and PLPP/CIN^-/- mice; saline or 2 h after kainic acid; PLPP/CIN^-/- mice also with vehicle, IC261 or CKI-7; primary antibody and protein G sepharose at 4°C overnight, western blot; details: remark: other sources report otherwise
[6] = molecular target: T3, GluN1 (an NMDAR subunit), endogenous in …; test: co-IP; in vitro: crude extracts of PLPP/CIN^-/- mouse brain incubated with recombinant PLPP/CIN (10 ng/ul) or Tris buffer (vehicle) at 30°C for 1 h, without added CK1 or CSEN; co-precipitation and western blot; details: remark: other sources report otherwise

B3: calsenilin (CSEN), endogenous in mouse hippocampus or brain (protein, UniProt Q9QXT8 1-256)
chain: T1 sequence
- binding [3]: binds
- binding [4]: binds

B4: calsenilin (CSEN), endogenous in mouse hippocampus or brain, Q9QXT8 1-256 (protein)
chain: T1 sequence
- binding [5]: binds
- binding [6]: binds

Second part, the binder after the results:

- binding [1]: binds
B1: pyridoxal-5'-phosphate phosphatase/chronophin (PLPP/CIN) in mouse hippocampus (enzyme, UniProt P60487 1-292)
chain: MARCERLRGAALRDVLGQAQGVLFDCDGVLWNGERIVPGAPELLQRLARAGKNTLFVSNNSRRARPELALRFARLGFAGLRAEQLFSSALCAARLLRQRLSGPPDASGAVFVLGGEGLRAELRAAGLRLAGDPGEDPRVRAVLVGYDEQFSFSRLTEACAHLRDPDCLLVATDRDPWHPLSDGSRTPGTGSLAAAVETASGRQALVVGKPSPYMFQCITEDFSVDPARTLMVGDRLETDILFGHRCGMTTVLTLTGVSSLEEAQAYLTAGQRDLVPHYYVESIADLMEGLED

- binding [2]: binds
B2: recombinant human pyridoxal-5'-phosphate phosphatase/chronophin (PLPP/CIN) (enzyme, UniProt Q96GD0 1-296)
chain: MARCERLRGAALRDVLGRAQGVLFDCDGVLWNGERAVPGAPELLERLARAGKAALFVSNNSRRARPELALRFARLGFGGLRAEQLFSSALCAARLLRQRLPGPPDAPGAVFVLGGEGLRAELRAAGLRLAGDPSAGDGAAPRVRAVLVGYDEHFSFAKLREACAHLRDPECLLVATDRDPWHPLSDGSRTPGTGSLAAAVETASGRQALVVGKPSPYMFECITENFSIDPARTLMVGDRLETDILFGHRCGMTTVLTLTGVSRLEEAQAYLAAGQHDLVPHYYVESIADLTEGLED
